Test results as given in patent US20120232251A1, “GLUCOSE SENSOR” (King's College London, priority 2009, published 2012).

Columns and labels:
Type in all cases: binding
[1] = Steady-state fluorescence intensity response of badan-labelled GBP mutants to glucose in PBS
Method: (§1) To label GBP mutants with badan, 50 μM protein was dissolved in 5 mM Tris(2-carboxyethyl)phosphine in phosphate-buffered saline (PBS) pH 7.4, and then a 10-fold excess of dye (500 μM) was added and the mixture incubated overnight at 4° C., after which it was purified on a Sephadex G-25 gel-filtration column.
(§2) Steady-state fluorescence intensity was recorded on a Perkin-Elmer LS50B fluorimeter (Perkin Elmer Instruments, Beaconsfield, UK). The excitation and emission wavelengths of badan were 400 and 550 nm respectively. All data were obtained at room temperature using quartz cuvettes with sample volume of 100 μL. The labelled protein was incubated with increasing amounts of D-glucose for 15-20 min at room temperature before fluorescence was recorded.
(§3) The binding constant, Kd, was calculated from the sigmoidal dose-response curves using Prism 5 software (GraphPad, San Diego, Calif., USA). Lifetime values were obtained from fluorescence transients using the TR12 analysis package (courtesy of Dr. Paul Barber, Gray Cancer Institute of Radiation Oncology and Biology, Oxford University, Oxford, UK). Global analysis was applied to the entire data set of twelve transients as described for the H152C mutant previously.

[2] = Steady-state fluorescence intensity response of badan-labelled GBP mutant to glucose in serum; conditions: serum from healthy individuals vs PBS (FIG. 3), listed as H152C/A213R/L238S-badan
Method: as §1
Venous blood samples from healthy volunteers were collected in Vacuette tubes. The specimens were incubated at room temperature for 4 days to allow blood clotting and glycolysis. The samples were then centrifuged at 3500 g for 20 min and serum removed, pooled and stored until use. The glucose concentrations of serum samples were determined using a hexokinase-based assay (Sigma).
as §2, with “All data were obtained at room temperature using quartz cuvettes with sample volume of 100 μL.” left out
as §3, with “Global analysis was applied to the entire data set of twelve transients as described for the H152C mutant previously.” left out

[3] = Fluorescence lifetime measurements (TCSPC) of GBP-badan with addition of glucose in PBS
[4] = global analysis of twelve transients, bi-exponential model, PBS

For “H152C/A213R/L238S: E. coli glucose/galactose binding protein triple mutant labelled at cysteine 152 with badan”, the “change in Kd compared with single mutant H152C-badan” value ([1]; FIG. 2) was “three-order of magnitude”, the “operating range (glucose concentration)” value ([1]; badan-labelled, glucose response curve (FIG. 2)) was 1 to 100 mM and the “fluorescence response to glucose in PBS compared with serum (in words)” value [2] was “similar”. For the same substance, the “fluorescence lifetime on glucose addition (in words)” value ([3]; badan-labelled) was “increased markedly”, the “long fluorescence lifetime state” value [3, 4] was 3.1 ns and the “short fluorescence lifetime state” value [3, 4] was 0.9 ns.
